Data taken from patent US9554576B2, “Tetrazolinone compounds and their use as pesticides” (SUMITOMO CHEMICAL COMPANY, LIMITED, priority 2012, dated 2017).
Some of these results come from one statement about several compounds together.

How the values were obtained:
[1] = system: soybean rust fungi (phakopsora pachyrhizi); assay: Test Example 13: soybean rust foliar spray test; assay type: in vivo; conditions: soybean (cv: Kurosengoku), 200 ppm foliar spray, inoculated after 2 days
[2] = system: barley leaf blotch fungi (Rhynchosporium secalis); assay: Test Example 14: barley leaf blotch foliar spray test; assay type: in vivo; conditions: barley (cv; Mikamo Golden), 200 ppm foliar spray, inoculated after 2 days
[3] = system: powdery mildew fungi (Sphaerotheca fuliginea); assay: Test Example 12: cucumber powdery mildew foliar spray test; assay type: in vivo; conditions: cucumber (cv; Sagamihanjiro), 200 ppm foliar spray, observed after 8 days
[4] = system: barley net blotch fungi (Pyrenophora teres); assay: Barley net blotch foliar spray preventive test; assay type: in vivo; conditions: barley (cv; Mikamo Golden), 200 ppm foliar spray, inoculated after 2 days
[5] = system: barley net blotch fungi (Pyrenophora teres); assay: Test Example 3: barley net blotch control, foliar spray on barley (cv Mikamo Golden), 500 ppm; assay type: in vivo; conditions: 500 ppm foliar spray, inoculated 2 days after spraying, observed after 3 + 7 days
[6] = system: kidney bean sclerotinia rot fungi (Sclerotinia sclerotiorum); assay: Test Example 4: kidney bean sclerotinia rot control, foliar spray on kidney bean (cv Nagauzurasaitou), 500 ppm; conditions: 500 ppm foliar spray, PDA medium with hyphae placed on leaves, observed after four days
[7] = system: powdery mildew fungi (Sphaerotheca fuliginea); assay: Test Example 6: cucumber powdery mildew control, foliar spray on cucumber (cv Sagamihanjiro), 500 ppm; assay type: in vivo; conditions: 500 ppm foliar spray, spores sprinkling-inoculated, observed after 8 days
[8] = system: wheat leaf blotch fungi (Septoria tritici); assay: Test Example 5: wheat leaf blotch control, foliar spray on wheat (cv Apogee), 500 ppm; assay type: in vivo; conditions: 500 ppm foliar spray, inoculated 4 days after spraying, observed after 3 days + 14 to 18 days
[9] = system: kidney bean sclerotinia rot fungi (Sclerotinia sclerotiorum); assay: Test Example 10: kidney bean sclerotinia rot foliar spray test; conditions: Kidney bean (cv; Nagauzurasaitou), 200 ppm foliar spray, observed after four days
[10] = system: wheat leaf blotch fungi (Septoria tritici); assay: Test Example 11: wheat leaf blotch foliar spray test; assay type: in vivo; conditions: wheat (cv; Apogee), 200 ppm foliar spray, inoculated after 4 days
[11] = system: cucumber anthracnose fungi (Colletotrichum lagenarium); assay: Test Example 17: cucumber anthracnose foliar spray test; assay type: in vivo; conditions: cucumber (cv; Sagamihanjiro), 200 ppm foliar spray, inoculated after 1 day

Cc1cc(-n2nc(C)c(C)c2C)ccc1OCc1c(C2CC2)cccc1-n1nnn(C)c1=O [Present compound 2, 1-{3-cyclopropyl-2-[2-methyl-4-(3,4,5-trimethyl-pyrazol-1-yl)-phenoxymethyl]-phenyl}-4-methyl-1,4-dihydrotetrazole-5-one]
≤ 30%: lesion area compared to the lesion area in untreated plants [1] | lesion area compared to the lesion area in untreated plants [2] | lesion area compared to the lesion area in untreated plants [3] | lesion area compared to the lesion area in untreated plants [4] | lesion area in treated plants compared to the lesion area in untreated plants [5] | lesion area in treated plants compared to the lesion area in untreated plants [6] | lesion area in treated plants compared to the lesion area in untreated plants [7] | lesion area in treated plants compared to the lesion area in untreated plants [8] | lesion area compared to the lesion area in untreated plants [9] | lesion area compared to the lesion area in untreated plants [10]

Cc1cc(-n2cc(C)c(C)n2)ccc1OCc1c(C2CC2)cccc1-n1nnn(C)c1=O [Present compound 6, 1-{3-cyclopropyl-2-[2-methyl-4-(3,4-dimethyl-pyrazol-1-yl)-phenoxymethyl]-phenyl}-4-methyl-1,4-dihydrotetrazole-5-one]
≤ 30%: lesion area compared to the lesion area in untreated plants [1] | lesion area compared to the lesion area in untreated plants [2] | lesion area compared to the lesion area in untreated plants [3] | lesion area compared to the lesion area in untreated plants [4] | lesion area in treated plants compared to the lesion area in untreated plants [5] | lesion area in treated plants compared to the lesion area in untreated plants [6] | lesion area in treated plants compared to the lesion area in untreated plants [7] | lesion area in treated plants compared to the lesion area in untreated plants [8] | lesion area compared to the lesion area in untreated plants [9] | lesion area compared to the lesion area in untreated plants [10]

Cc1nn(-c2ccc(OCc3c(C4CC4)cccc3-n3nnn(C)c3=O)c(Cl)c2)c(C)c1C [Present compound 7, 1-{3-cyclopropyl-2-[2-chloro-4-(3,4,5-trimethyl-pyrazol-1-yl)-phenoxymethyl]-phenyl}-4-methyl-1,4-dihydrotetrazole-5-one]
≤ 30%: lesion area compared to the lesion area in untreated plants [1] | lesion area compared to the lesion area in untreated plants [2] | lesion area compared to the lesion area in untreated plants [3] | lesion area compared to the lesion area in untreated plants [4] | lesion area in treated plants compared to the lesion area in untreated plants [5] | lesion area in treated plants compared to the lesion area in untreated plants [6] | lesion area in treated plants compared to the lesion area in untreated plants [7] | lesion area in treated plants compared to the lesion area in untreated plants [8] | lesion area compared to the lesion area in untreated plants [9] | lesion area compared to the lesion area in untreated plants [10]

Cc1cc(-c2ccn(C)n2)ccc1OCc1c(C2CC2)cccc1-n1nnn(C)c1=O [Present compound 12, 1-{3-cyclopropyl-2-[2-methyl-4-(1-methyl-1H-pyrazol-3-yl)-phenoxymethyl]-phenyl}-4-methyl-1,4-dihydrotetrazole-5-one]
≤ 30%: lesion area compared to the lesion area in untreated plants [1] | lesion area compared to the lesion area in untreated plants [2] | lesion area compared to the lesion area in untreated plants [3] | lesion area compared to the lesion area in untreated plants [4] | lesion area in treated plants compared to the lesion area in untreated plants [5] | lesion area in treated plants compared to the lesion area in untreated plants [6] | lesion area in treated plants compared to the lesion area in untreated plants [7] | lesion area in treated plants compared to the lesion area in untreated plants [8] | lesion area compared to the lesion area in untreated plants [9] | lesion area compared to the lesion area in untreated plants [10]

Cc1cc(-c2cc(C)n(C)n2)ccc1OCc1c(C2CC2)cccc1-n1nnn(C)c1=O [Present compound 15, 1-{3-cyclopropyl-2-[2-methyl-4-(1,5-dimethyl-1H-pyrazol-3-yl)-phenoxymethyl]-phenyl}-4-methyl-1,4-dihydrotetrazole-5-one]
≤ 30%: lesion area compared to the lesion area in untreated plants [1] | lesion area compared to the lesion area in untreated plants [2] | lesion area compared to the lesion area in untreated plants [3] | lesion area compared to the lesion area in untreated plants [4] | lesion area in treated plants compared to the lesion area in untreated plants [5] | lesion area in treated plants compared to the lesion area in untreated plants [6] | lesion area in treated plants compared to the lesion area in untreated plants [7] | lesion area in treated plants compared to the lesion area in untreated plants [8] | lesion area compared to the lesion area in untreated plants [9] | lesion area compared to the lesion area in untreated plants [10]

Cn1ccc(-c2ccc(OCc3c(C4CC4)cccc3-n3nnn(C)c3=O)c(Cl)c2)n1 [Present compound 23, 1-{3-cyclopropyl-2-[2-chloro-4-(1-methyl-1H-pyrazol-3-yl)-phenoxymethyl]-phenyl}-4-methyl-1,4-dihydrotetrazole-5-one]
≤ 30%: lesion area compared to the lesion area in untreated plants [2] | lesion area compared to the lesion area in untreated plants [11] | lesion area in treated plants compared to the lesion area in untreated plants [5] | lesion area in treated plants compared to the lesion area in untreated plants [7] | lesion area in treated plants compared to the lesion area in untreated plants [8] | lesion area compared to the lesion area in untreated plants [9]

Cc1cc(-c2nn(C)c(Cl)c2C)ccc1OCc1c(C2CC2)cccc1-n1nnn(C)c1=O [Present compound 33, 1-{3-cyclopropyl-2-[2-methyl-4-(5-chloro-1,4-dimethyl-1H-pyrazol-3-yl)-phenoxymethyl]-phenyl}-4-methyl-1,4-dihydrotetrazole-5-one]
≤ 30%: lesion area compared to the lesion area in untreated plants [11] | lesion area compared to the lesion area in untreated plants [4]

COc1c(C)c(-c2ccc(OCc3c(C4CC4)cccc3-n3nnn(C)c3=O)c(C)c2)nn1C [Present compound 34, 1-{3-cyclopropyl-2-[2-methyl-4-(5-methoxy-1,4-dimethyl-1H-pyrazol-3-yl)-phenoxymethyl]-phenyl}-4-methyl-1,4-dihydrotetrazole-5-one]
≤ 30%: lesion area compared to the lesion area in untreated plants [1] | lesion area compared to the lesion area in untreated plants [2] | lesion area compared to the lesion area in untreated plants [3] | lesion area compared to the lesion area in untreated plants [11] | lesion area compared to the lesion area in untreated plants [4] | lesion area compared to the lesion area in untreated plants [9] | lesion area compared to the lesion area in untreated plants [10]

Cc1cc(-c2nn(C)c(C)c2Cl)ccc1OCc1c(C2CC2)cccc1-n1nnn(C)c1=O [Present compound 36, 1-{3-cyclopropyl-2-(2-methyl-4-(4-chloro-1,5-dimethyl-1H-pyrazol-3-yl)-phenoxymethyl]-phenyl}-4-methyl-1,4-dihydrotetrazole-5-one]
≤ 30%: lesion area compared to the lesion area in untreated plants [1] | lesion area compared to the lesion area in untreated plants [2] | lesion area compared to the lesion area in untreated plants [3] | lesion area compared to the lesion area in untreated plants [11] | lesion area compared to the lesion area in untreated plants [4] | lesion area compared to the lesion area in untreated plants [9] | lesion area compared to the lesion area in untreated plants [10]

Cc1cc(-c2nn(C)c(Cl)c2C)ccc1OCc1c(-n2nnn(C)c2=O)cccc1[S+](C)[O-] (centres unmarked) [Present compound 41, 1-{2-[4-(5-chloro-1,4-dimethyl-1H-pyrazol-3-yl)-2-methyl-phenoxymethyl]-3-methanesulfinyl-phenyl}-4-methyl-1,4-dihydrotetrazole-5-one]
≤ 30%: lesion area compared to the lesion area in untreated plants [2] | lesion area compared to the lesion area in untreated plants [3] | lesion area compared to the lesion area in untreated plants [11] | lesion area compared to the lesion area in untreated plants [4] | lesion area compared to the lesion area in untreated plants [10]

CSc1c(C)c(-c2ccc(OCc3c(C4CC4)cccc3-n3nnn(C)c3=O)c(C)c2)nn1C [Present compound 45, 1-{3-cyclopropyl-2-[2-methyl-4-(1,4-dimethyl-5-methylthio-1H-pyrazol-3-yl)-phenoxymethyl]-phenyl}-4-methyl-1,4-dihydrotetrazole-5-one]
≤ 30%: lesion area compared to the lesion area in untreated plants [1] | lesion area compared to the lesion area in untreated plants [2] | lesion area compared to the lesion area in untreated plants [3] | lesion area compared to the lesion area in untreated plants [11] | lesion area compared to the lesion area in untreated plants [9] | lesion area compared to the lesion area in untreated plants [10]

CSc1c(C)c(-c2ccc(OCc3c(OC(F)F)cccc3-n3nnn(C)c3=O)c(C)c2)nn1C [Present compound 46, 1-{3-difluoromethoxy-2-[2-methyl-4-(1,4-dimethyl-5-methylthio-1H-pyrazol-3-yl)-phenoxymethyl]-phenyl}-4-methyl-1,4-dihydrotetrazole-5-one]
≤ 30%: lesion area compared to the lesion area in untreated plants [1] | lesion area compared to the lesion area in untreated plants [2] | lesion area compared to the lesion area in untreated plants [3] | lesion area compared to the lesion area in untreated plants [11] | lesion area compared to the lesion area in untreated plants [4] | lesion area compared to the lesion area in untreated plants [10]
